# Results are given in words; binding and its absence hold for the method and conditions named. Binding seen in cells or lysates may run through a third protein. Some binding calls cover weakened binding; strength is not graded here. Where a sequence is shown, tags or fusion partners need not be part of it.
# Protein sequences, listed by entry. Tags and fused reporters are not part of them.
# UniProt Q86TM6: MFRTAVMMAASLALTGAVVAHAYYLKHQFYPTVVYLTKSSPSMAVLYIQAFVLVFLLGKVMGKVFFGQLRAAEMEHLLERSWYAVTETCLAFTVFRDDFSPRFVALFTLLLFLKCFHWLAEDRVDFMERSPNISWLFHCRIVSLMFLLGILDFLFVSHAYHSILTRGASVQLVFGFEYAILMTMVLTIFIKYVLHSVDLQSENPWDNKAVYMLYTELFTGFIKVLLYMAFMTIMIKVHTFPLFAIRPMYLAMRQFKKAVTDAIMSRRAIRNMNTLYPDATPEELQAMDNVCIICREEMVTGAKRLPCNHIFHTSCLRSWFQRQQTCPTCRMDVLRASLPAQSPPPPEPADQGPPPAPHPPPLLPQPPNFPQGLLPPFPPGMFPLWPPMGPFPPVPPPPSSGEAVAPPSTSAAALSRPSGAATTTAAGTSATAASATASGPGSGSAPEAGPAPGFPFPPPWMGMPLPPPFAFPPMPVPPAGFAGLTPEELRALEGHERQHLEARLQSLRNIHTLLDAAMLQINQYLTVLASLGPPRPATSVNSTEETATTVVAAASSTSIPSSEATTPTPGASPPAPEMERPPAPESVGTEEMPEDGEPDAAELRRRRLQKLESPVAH
# Biological target: T1, Flag-GSDMD (UniProt P57764)
# T1 sequence: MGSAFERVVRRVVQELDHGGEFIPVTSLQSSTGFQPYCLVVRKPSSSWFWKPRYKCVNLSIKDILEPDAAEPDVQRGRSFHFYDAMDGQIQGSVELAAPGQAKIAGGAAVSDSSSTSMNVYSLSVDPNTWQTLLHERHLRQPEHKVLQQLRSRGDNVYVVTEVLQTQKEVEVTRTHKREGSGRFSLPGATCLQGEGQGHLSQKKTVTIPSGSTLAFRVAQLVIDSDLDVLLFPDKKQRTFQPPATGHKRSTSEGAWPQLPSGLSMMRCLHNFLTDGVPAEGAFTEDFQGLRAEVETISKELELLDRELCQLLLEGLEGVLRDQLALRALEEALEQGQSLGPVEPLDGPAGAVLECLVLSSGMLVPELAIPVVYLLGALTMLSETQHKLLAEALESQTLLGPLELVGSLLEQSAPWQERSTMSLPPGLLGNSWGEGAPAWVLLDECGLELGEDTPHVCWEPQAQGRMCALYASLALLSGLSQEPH
# Assay: co-IP; HEK293T cells co-transfected with Myc-Synoviolin and Flag-GSDMD plasmids; lysed in RIPA buffer; immunoprecipitation with anti-Flag or control IgG, immunoblot with Myc
substance,measurement,value
Myc-Synoviolin (from UniProt Q86TM6 1-617) (enzyme),binding,binds

# Source: publication PMC10336677
